Measured values as given in US20140363438A1, “NEUREGULIN ANTIBODIES AND USES THEREOF” (Genentech, Inc., priority 2011, published 2014).
At least one compound was matched to its structure with a doubt left.

System: Calu3-shHER4 xenograft tumors
Assay: Calu3-shHER4 xenograft
Format: in vivo, human
Settings: Calu3-shHER4, dox 2 gm/L in drinking water

C[C@H]1c2cccc(O)c2C(=O)C2=C(O)[C@]3(O)C(=O)C(C(N)=O)=C(O)[C@@H](N(C)C)[C@@H]3[C@@H](O)[C@@H]21 [dox, doxycycline]
tumor growth: not a notable inhibition
